## Screening data

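Genome-wide siRNA knockdown in TC32 Ewing sarcoma cells, comparing luciferase light from an NR0B1-promoter reporter with a CMV-promoter reporter 48 hours after transfection.
Each siRNA was applied at 20 nM.
A z-score of the log NR0B1-over-CMV signal, less the median of siRNAs with the same seed; more negative means a stronger specific loss of the NR0B1 reporter.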

This is part of the screen; most of the strongest results are not listed here.
Sequences are the guide (antisense) strand, without overhang.

strand | target gene | seed-corrected z-score
AAAGUUCAUGGCCAGGUGC | PRSS56 | -0.8452
UUCAUGUAGAUAUAGUCUC | SLITRK3 | 0.4357
AUACUUCAAGUAGAUGAUC | TSPAN11 | 1.315
UCCGAUGAGAUUGCACAGC | REEP6 | 0.08623
AAAGUAUCAUGGGAAAUAU | RPF2 | -0.3016
AGGAUUCUCAGAUAUCUUG | OPALIN | -0.0308
UUGCGCACAAACAUCAUCC | PRDM4 | -1.114
UAUAUCAGAGUUCAGAUCC | LDHAL6B | 0.7413
AUAGUUGCAUACUUUAAGC | FPGT | -1.209
UCUAUUGAGACUCAAAGGC | MRPL15 | 0.009021
AAUUCUCUAAUAAUUCAUG | SPACA7 | 0.0506
AGAGUAGGCAUAGACAUGC | CSF3R | -0.327
UAGAUCACCAUGGAUACUG | ZP2 | -0.6281
AAGCGGUUAUAAUCGAUCC | TYW1 | -0.767
UAGUGAGAGAUUUGUCUCC | DPCR1 | 0.596
AACGGUCACAUUCUCCGUC | TMEM255B | 2.169
AACUGGUACAGCAAACUCC | TBC1D16 | 0.4852
UCCGGUUCUAACUUGGUCC | SETX | 0.624
UACUGGUAAAGGUGGGUGC | STARD7 | -0.6333
AGAGAUCCGAUUGUAUUGG | NRIP2 | -0.4042
UUUCAAUCAGGUUGGGCUC | SPEG | 0.1812
AACUUACAAAUAUUUAGGG | THOC3 | -0.4536
UGAGCAUCAAGAACCACUC | MAPK8IP2 | 0.01757
AUUGUUCAACAUAAGAGGC | RPTN | -0.5023
UUGGUAUGGAAUGAAGCUC | ZBED3 | 0.8403
AUCACGUCCGGUGUAUUUG | S100A7A | -0.5443
ACAUUAACAGACUCUAUUC | E2F8 | 0.4065
UUAAUAUUCGGUCUUUCAG | GCOM2 | 0.4914
UGUCGAAAUUGUCUAAGCC | PNPLA7 | 0.4945
ACUGGUCUGAGGCAUCUCC | HOXB1 | -0.452
UGACCUUGAAGUGUUGAAC | GRAP2 | 0.1965
UUCCUGCAUAUGACGCACC | ACYP1 | 1.254
UUUAGCAUGAGGCUCACCU | CBLN1 | -0.1784
UUGGAUACCAUGCAGCAUG | NUP88 | 0.5886
AACGGAAGCAGUACAAUCC | FLJ46838 | 0.246
AAUACUUCCAAUGACAAUC | TACR3 | -0.5076
UCCAGUGUAAUCAAUGUAA | RBM24 | 1.211
UACCUUAACAAUAAGGAAC | PCDHB10 | 0.2892
UGUUGUGGAGGAACUCUGG | FOXP3 | -0.5587
UUUGUCAUCUGCGUAUUUC | MCM8 | 0.6756
UUCAUGAAGGCGUGUGACU | TMEM141 | 0.3018
UGCAUACAGUGGGUCUUUG | GOLGA6L9 | -0.4305
AAAGUUUUGCUGGGUAUAU | GIMAP6 | -0.2379
AUAGUUAGAACUACAGCUG | ZNF23 | -0.9128
UGAUGAUCACCUUCAACCC | IMMP2L | -0.7145
UCUCGGGUCACCACUUCGU | RPL31P31 | 0.4913
UGUAUUGUUAACUAAUCCC | CHD7 | -0.2185
AAUGCAGCAAGGCAUAACC | ATRN | 0.8813
UCUGGUUCAUCAACUCUCC | GALK2 | -1.352
UGUGGACUGCGCAAACUGC | CXXC5 | 0.02766
UCCAUUUUUGCGGAGAUUG | PCMT1 | 0.7161
UGAACGGACACUAAAGGCU | ZNF347 | 0.2081
UUCGCUUUAGCAGAUAUGA | PIF1 | 0.1056
UCAUGGAUUCGGAAGUAAC | ZNF627 | -0.3745
UAAAUUGCCUAUUAGAGUG | OR5T1 | 0.1923
AUCGUCAUUCUUCAUGUGC | CHRNB4 | 0.6267
UGUACUCAAAGCCGAGCUG | LOC642620 | -1.335
UUCCGGAUCUCCUUGUAGC | CHGA | -0.7312
UAAUGCAAAAGAUUGAGCC | C15orf56 | 0.1894
UCACUGGUGAAUGUGCCCU | GCG | -0.1009
UGCAGUGUCGCUACCAUAG | LILRB1 | -0.09757
UUUUGUGACAUUGACUUUC | ULBP1 | 0.8015
UAAGGUCGGUGAUUGAAGG | SYNJ2 | 1.143
AAAGUAUUCACGAAGUUUC | CDYL | -0.2388
UGUUUAUUGAGCAAAGGGU | ZNF580 | -1.953
ACUGGACAAAUUGUUAGCC | SEC22B | 1.114
UUUGAGUCCAUUUCAAUCC | LRRC36 | 0.06875
UUCCUUCGAAACAUUUCCU | SSX3 | 0.2145
UGUUGGACAGCAAUGGGUC | EMID1 | -0.06968
UUUGUCACACCAAUCGCUG | STX16 | -0.4659
UUGUCUCCCAGAGUAGAUC | ADAM15 | -1.074
UAGAGUUCCAGGCUUCUGC | RNASET2 | -0.08382
UUUGUAACGAGAUGACGGG | ARHGEF18 | -0.4626
UUAACUCCAACCACAAUGA | AP4S1 | 0.9487
UGCACCUUUAUACAACUGC | FBXO11 | -0.04287
UCAGAGAUUUUCCAUAUGC | C8orf46 | 0.1837
UAAACUUGGACGAUGAUAA | CCL25 | 0.1149
AUGAUUUAAAGGCUCACUC | ZNF652 | -0.4321
UUCCGGAUCAGCAUUGCUG | ITGA8 | -0.7119
UGAUCUACCAAGAGACAGG | CTC1 | 0.8553

The last 7 entries again:

{"strand": "UUAACUCCAACCACAAUGA", "target gene": "AP4S1", "seed-corrected z-score": "0.9487"}
{"strand": "UGCACCUUUAUACAACUGC", "target gene": "FBXO11", "seed-corrected z-score": "-0.04287"}
{"strand": "UCAGAGAUUUUCCAUAUGC", "target gene": "C8orf46", "seed-corrected z-score": "0.1837"}
{"strand": "UAAACUUGGACGAUGAUAA", "target gene": "CCL25", "seed-corrected z-score": "0.1149"}
{"strand": "AUGAUUUAAAGGCUCACUC", "target gene": "ZNF652", "seed-corrected z-score": "-0.4321"}
{"strand": "UUCCGGAUCAGCAUUGCUG", "target gene": "ITGA8", "seed-corrected z-score": "-0.7119"}
{"strand": "UGAUCUACCAAGAGACAGG", "target gene": "CTC1", "seed-corrected z-score": "0.8553"}

Data taken from PubChem BioAssay AID1159506, deposited by NCATS (2015).